# Source: the supplement of paper PMC4604168 (melanoma cell lines)
# Some of the results follow. Single values are uncertain, as repeats are few or missing.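 Cells were imaged in 1,536-well plates, and nuclei stained with an antibody against cleaved PARP were counted against all DNA-stained nuclei to give the apoptosis fraction. Screening doses were chosen to leave most cells alive, and resting and induced cleaved-PARP levels differ strongly between cell lines.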
# How the values were obtained:
# Experiment in all cases: cleaved PARP positive nuclei fraction relative to DMSO control; melanoma cells; higher = more apoptosis
# Conditions in all cases: library dose: low library concentration; 72 h
# CBRC034 = system: CBRC034 (line from a melanoma biopsy)
# COLO792 = system: COLO792
# COLO800 = system: COLO800
# COLO829 = system: COLO829
# G361 = system: G361
# IPC-298 = system: IPC-298
# IST-MEL1 = system: IST-MEL1
# LB2518-MEL = system: LB2518-MEL
# LOXIMVI = system: LOXIMVI
# MEL-HO = system: MEL-HO
SMILES,cleaved PARP positive nuclei fraction (CBRC034) [%],cleaved PARP positive nuclei fraction (COLO792) [%],cleaved PARP positive nuclei fraction (COLO800) [%],cleaved PARP positive nuclei fraction (COLO829) [%],cleaved PARP positive nuclei fraction (G361) [%],cleaved PARP positive nuclei fraction (IPC-298) [%],cleaved PARP positive nuclei fraction (IST-MEL1) [%],cleaved PARP positive nuclei fraction (LB2518-MEL) [%],cleaved PARP positive nuclei fraction (LOXIMVI) [%],cleaved PARP positive nuclei fraction (MEL-HO) [%]
"CCCCCCCCc1ccc(CCC(N)(CO)CO)cc1 [fingolimod] + C=CCNC1=C2C[C@@H](C)C[C@H](OC)[C@H](O)[C@@H](C)/C=C(\C)[C@H](OC(N)=O)[C@@H](OC)/C=C\C=C(/C)C(=O)NC(=CC1=O)C2=O [Tanespimycin] (first compound 2 µM, partner dose 0.002 µM)",231,104,61.7,127,190,139,71.6,76.6,184,166
"CCCCCCCCc1ccc(CCC(N)(CO)CO)cc1 [fingolimod] + CN1CCN(c2ccc3nc(-c4c(N)c5c(F)cccc5[nH]c4=O)[nH]c3c2)CC1 [Dovitinib] (first compound 2 µM, partner dose 0.1 µM)",173,70.6,162,104,93.2,30.6,130,99.8,188,43.4
"NC(=O)c1ccc(N(C(N)=O)c2c(F)cccc2F)nc1-c1ccc(F)cc1F + Nc1ccn([C@@H]2O[C@H](CO)[C@@H](O)C2(F)F)c(=O)n1 [gemcitabine] (first compound 0.4 µM, partner dose 0.0004 µM)",229,229,125,107,149,150,88.6,120,28.1,186
"CC(=O)O[C@@]12CO[C@@H]1C[C@H](O)[C@@]1(C)C(=O)[C@H](O)C3=C(C)[C@@H](OC(=O)[C@H](O)[C@@H](NC(=O)OC(C)(C)C)c4ccccc4)C[C@@](O)([C@@H](OC(=O)c4ccccc4)[C@H]21)C3(C)C [Docetaxel] + Nc1ncn([C@H]2C[C@H](O)[C@@H](CO)O2)c(=O)n1 [decitabine] (first compound 0.0001 µM, partner dose 0.1 µM)",137,760,168,172,721,150,126,231,143,70.6
"C[C@@H](N)c1ccc(C(=O)Nc2ccnc3[nH]ccc23)cc1 + OCc1c[nH]c2ccccc12 [Indole-3-carbinol] (first compound 0.4 µM, partner dose 0.8 µM)",167,209,134,111,86.8,271,170,131,103,108
"COc1ccc(C2=N[C@@H](c3ccc(Cl)cc3)[C@@H](c3ccc(Cl)cc3)N2C(=O)N2CCNC(=O)C2)c(OC(C)C)c1 [Nutlin-3] + CCCS(=O)(=O)Nc1ccc(F)c(C(=O)c2c[nH]c3ncc(Cl)cc23)c1F [PLX4720] (first compound 0.1 µM, partner dose 0.08 µM)",58,119,65.2,44.8,166,84,331,193,40.8,61.2
"NC1(c2ccc(-c3nc4ccn5c(=O)[nH]nc5c4cc3-c3ccccc3)cc2)CCC1 + C=C(c1ccc(C(=O)O)cc1)c1cc2c(cc1C)C(C)(C)CCC2(C)C [Bexarotene] (first compound 0.4 µM, partner dose 2 µM)",62.8,129,62.5,70.5,124,174,61.9,112,90.5,21.5
"CS(=O)(=O)c1ccc(C(=O)Nc2ccc(Cl)c(-c3ccccn3)c2)c(Cl)c1 [vismodegib] + CC(=O)c1c(C)c2cnc(Nc3ccc(N4CCNCC4)cn3)nc2n(C2CCCC2)c1=O [palbociclib] (first compound 1 µM, partner dose 0.04 µM)",34.9,120,71.9,86,162,92.9,66.1,253,30.7,141
"CC1(C)CCC(c2ccc(Cl)cc2)=C(CN2CCN(c3ccc(C(=O)NS(=O)(=O)c4ccc(N[C@H](CCN5CCOCC5)CSc5ccccc5)c(S(=O)(=O)C(F)(F)F)c4)cc3)CC2)C1 + C[C@@H](Oc1cc(-c2cnn(C3CCNCC3)c2)cnc1N)c1c(Cl)ccc(F)c1Cl [Crizotinib] (first compound 0.4 µM, partner dose 0.2 µM)",299,621,61,112,223,85.5,232,244,183,158
"NC1(c2ccc(-c3nc4ccn5c(=O)[nH]nc5c4cc3-c3ccccc3)cc2)CCC1 + CS(=O)(=O)CCNCc1ccc(-c2ccc3ncnc(Nc4ccc(OCc5cccc(F)c5)c(Cl)c4)c3c2)o1 [lapatinib] (first compound 0.4 µM, partner dose 0.8 µM)",66.7,193,122,107,91.6,125,124,116,186,76.7
"C[C@@H](N)c1ccc(C(=O)Nc2ccnc3[nH]ccc23)cc1 + C=CCNC1=C2C[C@@H](C)C[C@H](OC)[C@H](O)[C@@H](C)/C=C(\C)[C@H](OC(N)=O)[C@@H](OC)/C=C\C=C(/C)C(=O)NC(=CC1=O)C2=O [Tanespimycin] (first compound 0.4 µM, partner dose 0.002 µM)",193,114,75.5,187,170,40.7,60.5,85.1,171,40.7
"Cn1sc(=O)n(Cc2ccccc2)c1=O + COCC[n+]1c2c(n(Cc3cnccn3)c1C)C(=O)c1ccccc1C2=O [YM155] (first compound 0.4 µM, partner dose 0.0004 µM)",68.7,111,26.1,94.4,77,42.6,89.9,233,188,150
"CCN(CC)CCNC(=O)c1c(C)[nH]c(/C=C2\C(=O)Nc3ccc(F)cc32)c1C [sunitinib] + Nc1ncn([C@H]2C[C@H](O)[C@@H](CO)O2)c(=O)n1 [decitabine] (first compound 0.4 µM, partner dose 0.1 µM)",66.4,192,152,137,193,175,98.5,107,210,92.5
"CS(=O)(=O)c1ccc(C(=O)Nc2ccc(Cl)c(-c3ccccn3)c2)c(Cl)c1 [vismodegib] + Cc1cc(Nc2cc(N3CCN(C)CC3)nc(/C=C/c3ccccc3)n2)n[nH]1 [ENMD2076] (first compound 1 µM, partner dose 0.04 µM)",43.3,61.4,214,163,53.7,130,119,47,195,252
"CCCCCCCCc1ccc(CCC(N)(CO)CO)cc1 [fingolimod] + Cc1cc(Nc2cc(N3CCN(C)CC3)nc(/C=C/c3ccccc3)n2)n[nH]1 [ENMD2076] (first compound 2 µM, partner dose 0.04 µM)",25.4,76,163,102,103,61.6,121,192,47,110
"C[C@]1(O)C[C@@H](c2nc(-c3ccc4ccc(-c5ccccc5)nc4c3)c3c(N)nccn32)C1 + Clc1ccc(Nc2nnc(Cc3ccncc3)c3ccccc23)cc1 [vatalanib] (first compound 0.4 µM, partner dose 2 µM)",46.5,124,120,92.8,179,92.9,71.8,107,384,191
"CC(=O)O[C@@]12CO[C@@H]1C[C@H](O)[C@@]1(C)C(=O)[C@H](O)C3=C(C)[C@@H](OC(=O)[C@H](O)[C@@H](NC(=O)OC(C)(C)C)c4ccccc4)C[C@@](O)([C@@H](OC(=O)c4ccccc4)[C@H]21)C3(C)C [Docetaxel] + Cn1nnc2c(C(N)=O)ncn2c1=O [temozolomide] (first compound 0.0001 µM, partner dose 2 µM)",193,529,351,219,671,445,285,510,201,213
"CCN(CC)CCNC(=O)c1c(C)[nH]c(/C=C2\C(=O)Nc3ccc(F)cc32)c1C [sunitinib] + NC1(c2ccc(-c3nc4ccn5c(=O)[nH]nc5c4cc3-c3ccccc3)cc2)CCC1 [MK2206] (first compound 0.4 µM, partner dose 0.4 µM)",74.9,95.9,190,68.6,113,92.2,202,72.8,23,203
"Cn1sc(=O)n(Cc2ccccc2)c1=O + CCCS(=O)(=O)Nc1ccc(F)c(C(=O)c2c[nH]c3ncc(Cl)cc23)c1F [PLX4720] (first compound 0.4 µM, partner dose 0.08 µM)",32.5,94.6,61.2,84.8,123,58.2,87.1,43.7,43.3,117
"CN(c1ncccc1CNc1nc(Nc2ccc3c(c2)CC(=O)N3)ncc1C(F)(F)F)S(C)(=O)=O + C=C(c1ccc(C(=O)O)cc1)c1cc2c(cc1C)C(C)(C)CCC2(C)C [Bexarotene] (first compound 0.08 µM, partner dose 2 µM)",259,168,188,272,153,94.2,131,118,108,79.6
"CC1(C)CCC(c2ccc(Cl)cc2)=C(CN2CCN(c3ccc(C(=O)NS(=O)(=O)c4ccc(N[C@H](CCN5CCOCC5)CSc5ccccc5)c(S(=O)(=O)C(F)(F)F)c4)cc3)CC2)C1 + Clc1ccc(Nc2nnc(Cc3ccncc3)c3ccccc23)cc1 [vatalanib] (first compound 0.4 µM, partner dose 2 µM)",99,389,65,202,136,256,185,279,43.9,54.7

# Part of the list above, tab-delimited.
SMILES	cleaved PARP positive nuclei fraction (CBRC034) [%]	cleaved PARP positive nuclei fraction (COLO792) [%]	cleaved PARP positive nuclei fraction (COLO800) [%]	cleaved PARP positive nuclei fraction (COLO829) [%]	cleaved PARP positive nuclei fraction (G361) [%]	cleaved PARP positive nuclei fraction (IPC-298) [%]	cleaved PARP positive nuclei fraction (IST-MEL1) [%]	cleaved PARP positive nuclei fraction (LB2518-MEL) [%]	cleaved PARP positive nuclei fraction (LOXIMVI) [%]	cleaved PARP positive nuclei fraction (MEL-HO) [%]
CCCCCCCCc1ccc(CCC(N)(CO)CO)cc1 [fingolimod] + CN1CCN(c2ccc3nc(-c4c(N)c5c(F)cccc5[nH]c4=O)[nH]c3c2)CC1 [Dovitinib] (first compound 2 µM, partner dose 0.1 µM)	173	70.6	162	104	93.2	30.6	130	99.8	188	43.4
NC1(c2ccc(-c3nc4ccn5c(=O)[nH]nc5c4cc3-c3ccccc3)cc2)CCC1 + C=C(c1ccc(C(=O)O)cc1)c1cc2c(cc1C)C(C)(C)CCC2(C)C [Bexarotene] (first compound 0.4 µM, partner dose 2 µM)	62.8	129	62.5	70.5	124	174	61.9	112	90.5	21.5
